Consider 2 sequences from publication PMC9520404.

By UniProt entry, the sequences of proteins in these tests, tags left out.
UniProt P08670, whole entry: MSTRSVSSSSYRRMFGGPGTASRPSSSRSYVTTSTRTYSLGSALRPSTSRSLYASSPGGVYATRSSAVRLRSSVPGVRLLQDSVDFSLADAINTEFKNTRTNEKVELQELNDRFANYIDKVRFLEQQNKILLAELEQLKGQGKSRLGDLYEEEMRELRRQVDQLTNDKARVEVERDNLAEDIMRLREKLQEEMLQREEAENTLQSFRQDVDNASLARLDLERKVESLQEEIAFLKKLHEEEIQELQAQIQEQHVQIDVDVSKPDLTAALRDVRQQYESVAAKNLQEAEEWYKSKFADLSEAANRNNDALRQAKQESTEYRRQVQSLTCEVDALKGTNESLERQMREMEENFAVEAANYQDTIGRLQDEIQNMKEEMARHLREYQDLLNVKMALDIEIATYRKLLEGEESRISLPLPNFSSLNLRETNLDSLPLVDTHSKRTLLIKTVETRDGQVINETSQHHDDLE

No signal at the amounts used counts as a negative. The exact form of at least one protein or probe is not confirmed. Weaker means in comparison with the reference protein, sequence or condition of that experiment.

The target in this data set is Vimentin (human) (UniProt P08670). In words: EMSA. The following applies: DNA not annealed (equilibrated in 150 mM KCl), 8 uM Vimentin, 500 nM DNA; 5 mM Tris pH 8.4, 150 mM KCl, 1 h at room temperature; 1.5% agarose in 1x TBE + 10 mM KCl, run at 4 C; recombinant protein; residues 1-466; folded or branched DNA. On the technique in general: Mobility shift assays separate free from complexed probe on a gel.

Turning to “CGGGCGGGCGAGGGGCCGGGCCGCCGGGGCGGGGCGGGGCCGGGC [TEAD4-full]”, the binding result is recorded as “no binding”.

As for “CGGGCGGGCGAGGGGCCGGGTTGTTGGGGCGGGGCGGGGCCGGGC [TEAD4-full-2TT]”, the binding result is listed as “binds more weakly”.
